Results are given in words; binding and its absence hold for the method and conditions named. Binding seen in cells or lysates may run through a third protein. Binding can be weak; no strength is given.
Biological target: T1, chloride channel-3 (ClC-3) (human (endogenous in HeLa)) (UniProt P51790)
T1 sequence: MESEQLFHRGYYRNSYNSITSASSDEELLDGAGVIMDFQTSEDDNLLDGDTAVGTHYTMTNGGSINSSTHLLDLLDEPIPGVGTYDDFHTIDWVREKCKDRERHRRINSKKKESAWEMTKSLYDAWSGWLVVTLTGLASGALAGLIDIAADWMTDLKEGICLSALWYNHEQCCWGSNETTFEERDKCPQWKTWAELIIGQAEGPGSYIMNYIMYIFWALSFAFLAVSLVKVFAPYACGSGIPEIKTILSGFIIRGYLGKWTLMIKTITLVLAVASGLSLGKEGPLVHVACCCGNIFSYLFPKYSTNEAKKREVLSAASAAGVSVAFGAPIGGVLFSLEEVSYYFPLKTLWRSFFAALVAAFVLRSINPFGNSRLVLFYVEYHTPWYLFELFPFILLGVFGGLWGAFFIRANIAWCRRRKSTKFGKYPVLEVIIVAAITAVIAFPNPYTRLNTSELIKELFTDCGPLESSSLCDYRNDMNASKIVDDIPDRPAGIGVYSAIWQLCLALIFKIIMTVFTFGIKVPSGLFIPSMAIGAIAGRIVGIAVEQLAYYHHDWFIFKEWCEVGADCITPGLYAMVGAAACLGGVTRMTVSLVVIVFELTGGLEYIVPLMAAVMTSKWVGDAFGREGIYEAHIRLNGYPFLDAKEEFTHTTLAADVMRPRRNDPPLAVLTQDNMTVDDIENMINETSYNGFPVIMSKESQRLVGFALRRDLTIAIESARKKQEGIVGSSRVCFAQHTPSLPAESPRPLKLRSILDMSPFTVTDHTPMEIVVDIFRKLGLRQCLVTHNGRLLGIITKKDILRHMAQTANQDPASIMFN
Experiment: co-IP; EGF-stimulated HeLa cells transfected with wild-type or Ser→Ala mutant GFP-K18; endogenous ClC-3 and β1 integrin

Substance	binding
K18 Ser33→Ala mutant (GFP-K18)	binds
K18 Ser52→Ala mutant (GFP-K18)	binds
